No constants are given. Whether binding was seen depends on the method and setting. Binding seen in cells or lysates may run through a third protein. These calls come from enrichment with a bait or labelling near it, and not all partners need be listed. For some assays here: A no says only that the protein was not detected with the bait. For some assays here: Sequences can lack the tags named with a protein.
T1: HA-BioID2-WIT1 (Arabidopsis thaliana) (UniProt Q8L7E5)
T1 sequence: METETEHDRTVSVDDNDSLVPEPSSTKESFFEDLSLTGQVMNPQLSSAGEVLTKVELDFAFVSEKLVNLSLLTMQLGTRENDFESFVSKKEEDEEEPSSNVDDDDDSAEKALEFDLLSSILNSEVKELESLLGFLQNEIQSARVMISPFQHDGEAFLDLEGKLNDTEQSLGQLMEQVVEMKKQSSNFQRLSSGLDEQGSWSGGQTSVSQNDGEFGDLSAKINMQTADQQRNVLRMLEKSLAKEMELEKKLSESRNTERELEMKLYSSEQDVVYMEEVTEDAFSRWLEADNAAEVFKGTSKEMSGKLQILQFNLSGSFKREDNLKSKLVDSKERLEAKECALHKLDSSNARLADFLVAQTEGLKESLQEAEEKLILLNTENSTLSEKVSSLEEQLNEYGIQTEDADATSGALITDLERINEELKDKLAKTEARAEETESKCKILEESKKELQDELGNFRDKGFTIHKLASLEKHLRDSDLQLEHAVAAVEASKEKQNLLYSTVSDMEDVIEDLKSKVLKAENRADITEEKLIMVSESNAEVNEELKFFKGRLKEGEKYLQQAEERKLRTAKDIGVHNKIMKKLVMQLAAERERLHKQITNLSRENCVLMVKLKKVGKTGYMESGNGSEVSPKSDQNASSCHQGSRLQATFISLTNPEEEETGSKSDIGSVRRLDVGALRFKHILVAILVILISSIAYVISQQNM

T2: Nup93a-BioID2 (Arabidopsis thaliana) (UniProt O22224)
T2 sequence: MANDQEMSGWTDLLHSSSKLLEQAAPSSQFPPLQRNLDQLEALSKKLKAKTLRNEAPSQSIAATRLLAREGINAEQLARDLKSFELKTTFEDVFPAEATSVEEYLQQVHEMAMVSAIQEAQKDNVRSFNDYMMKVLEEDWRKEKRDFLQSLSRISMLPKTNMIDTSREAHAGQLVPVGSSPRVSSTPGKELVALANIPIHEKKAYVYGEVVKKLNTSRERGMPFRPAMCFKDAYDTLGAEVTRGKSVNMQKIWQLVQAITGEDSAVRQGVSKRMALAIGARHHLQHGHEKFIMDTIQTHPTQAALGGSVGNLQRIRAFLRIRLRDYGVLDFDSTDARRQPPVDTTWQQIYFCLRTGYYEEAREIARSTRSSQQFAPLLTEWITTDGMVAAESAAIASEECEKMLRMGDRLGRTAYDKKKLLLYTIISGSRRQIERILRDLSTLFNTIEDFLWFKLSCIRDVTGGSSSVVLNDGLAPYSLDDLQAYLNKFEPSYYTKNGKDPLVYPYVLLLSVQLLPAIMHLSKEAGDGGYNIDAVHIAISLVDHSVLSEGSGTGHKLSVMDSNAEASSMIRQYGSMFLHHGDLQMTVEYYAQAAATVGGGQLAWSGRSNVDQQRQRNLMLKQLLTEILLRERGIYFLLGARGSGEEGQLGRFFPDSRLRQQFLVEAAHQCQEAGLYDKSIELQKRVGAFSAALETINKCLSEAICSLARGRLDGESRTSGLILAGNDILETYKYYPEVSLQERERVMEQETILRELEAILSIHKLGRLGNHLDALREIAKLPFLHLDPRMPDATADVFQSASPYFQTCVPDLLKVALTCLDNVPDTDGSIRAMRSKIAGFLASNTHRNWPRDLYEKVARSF


Tests used:
Test in all cases: proximity labelling; BioID2-tagged bait in 10-day-old transgenic Arabidopsis seedlings, 50 µM biotin for 16 h at room temperature, streptavidin-coated beads, label-free quantitative MS, ratiometric analysis against controls; the SUN1 bait also with MG132 treatment
[1] = target: T1, HA-BioID2-WIT1 (Arabidopsis thaliana)
[2] = target: Nup82-BioID2 (Arabidopsis thaliana)
[3] = target: T2, Nup93a-BioID2 (Arabidopsis thaliana)
[4] = target: HA-BioID2-NEMP_A (Arabidopsis thaliana) (UniProt Q9SHQ6)

| binding [1] | binding [2] | binding [3] | binding [4] | Binder |
| --- | --- | --- | --- | --- |
| no binding | no binding | no binding | – | UFD1C (protein, UniProt Q8W570 1-311) MFYDGYAYHGTTFEQTYRCYPSSFIDKPQIESGDKIIMPPSALDRLASLQIDYPMLFELRNASTDSFSHCGVLEFIAEEGVIYIPYWMMQNLLLQEGDMVRVRNVTLPKGTYVKLQPHTTDFLDIANPKAILETALRNYSCLTVGDSIMVPYNNKKYFIDIVEAKPSNGISIIETDCEVDFAPPLDYKEPERPVAPAPAKAKEVDVAEAEPKFNPFTGSGRRLDGRPLSYEPQPGAANSNGQSHPVASSSSSGSEKATQQNRGKLVFGSNVERSTKETTKVGAGKDRKQEEEAEKEAKFQAFSGKKYSLRG |
| no binding | no binding | no binding | binds | PUX5 (protein, UniProt Q7Y175 1-421) MATETNENLINSFIEITSSSREEANFFLESHTWNLDAAVSTFLDNDAAAAAEPNPTGPPPPSSTIAGAQSPSQSHSPDYTPSETSPSPSRSRSASPSSRAAPYGLRSRGGAGENKETENPSGIRSSRSRQHAGNIRTFADLNRSPADGEGSDSDEANEYYTGGQKSGMMVQDPKKVKDVDELFDQARQSAVDRPVEPSRSASTSFTGAARLLSGEAVSSSPQQQQQEQPQRIMHTITFWLNGFTVNDGPLRGFSDPENAAFMNSISRSECPSELEPADKKIPVHVDLVRRGENFTEPPKPKNPFQGVGRTLGASGSGSSSAPQASSAPMNVAPAPSRGLVVDPAAPTTSIQLRLADGTRLVSRFNNHHTVRDVRGFIDASRPGGSKEYQLLTMGFPPKQLTELDQTIEQAGIANAVVIQKF |
| no binding | no binding | no binding | – | UFD1B (protein, UniProt Q9SJV0 1-340) MVLRFCCHLLTYSVSLLPPITMFFDGYHYHGTTFEQSYRCYPASFIDKPQLESGDKIIMPPSALDRLASLHIDYPMLFELRNAGIERVTHCGVLEFIAEEGMIYMPYWMMQNLLLQEGDIVRVRNVTLPKGTYVKLQPHTTDFLDISNPKAILETALRNYSCLTSGDSIMVPYNNKKYFIDIVETKPANAISIIETDCEVDFAPPLDYKEPERPTAPSAAKGPAKAEEVVDEPEPKFNPFTGSGRRLDGRPLAYEPAPASSSKGKQPVVANGNGQSSVASSSEKATRAQGKLVFGANGNRAPKEAAPKVGAAKETKKEEQEKKDEPKFQAFSGKKYSLRG |
| no binding | no binding | no binding | binds | PUX4 (protein, UniProt Q8RWU7 1-303) MSSKDKKPSKPSSSRGGIRTLSDLNRRSGPDSDSDSDGPQEYYTGGEKSGMLVQDPSKKDDVDEIFNQARQLGAVEGPLEPPPSSRSFTGTGRLLSGENVPTGNQQPEPVVHNIVFWSNGFTIDDGPLRKLDDPENASFLESIRKSECPKELEPADRRAPVHVNLMRKEEKCPERQKRRVSFQGVGRTLGGSNEGSGSSSPVAPDSAPIPIQTEPAPSQSLVIDETVPTTSIQLRLADGTRLVAKFNHHHTVNDIRGFIDSSRPGASLNYQLQTMGFPPKPLTDLTQTIEEAGLANSVVLQKF |

— article PMC7324386
